# Data: PubChem BioAssay AID651640 (Broad Institute, 2012)
# Screen size: about 350,000 compounds; about 6,000 (1.7%) were called active. This list was built around the results that the source calls inconclusive (neither active nor inactive); the mix of calls is not that of the screen. Rule as the data show it: active = CPE inhibition above about 20% (passing the limit was not always enough); inconclusive = no clear call, values can overlap the other calls; tested in BHK-21 cells.
# Assay: protection of cells from dengue 2 killing – plate reader, single concentration, primary screen (AID 651640);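 also: 0% = median of neutral control wells and 100% = median of positive control wells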
# Details: DENV2-infected cells, cytopathic effect rescue, at 9.99 µM, active compounds read high
row,Structure (SMILES),CPE inhibition
1,COc1cccc(CN2CCN(CCc3ccccc3)C(CCO)C2)c1OC (stereo not drawn),inconclusive: 30.8%
2,O=C(Oc1c(-c2ccccc2)c(=O)n2c3c(cccc13)CC2)c1ccccc1,inconclusive: 23.2%
3,C=CC[C@@H](CC(=O)NCCO)C(=O)N[C@@H](C)COC(=O)[C@H](CC=C)CC(=O)OC(C)(C)C,active: 46.4%
4,CO[C@@H]1CN(C)C(=O)c2cc(NC(C)=O)ccc2OC[C@@H](C)N(CCC(F)(F)F)C[C@H]1C,inactive: -2.63%
5,COc1cccc(-c2ccc([C@@H]3[C@@H](C#N)N(C(=O)Cc4ccccc4)[C@H]3CO)cc2)c1,inconclusive: 30.8%
6,Cc1ccc(-c2cc(C(F)F)nc(S(C)(=O)=O)n2)cc1,inconclusive: 45.1%
7,CCCCNc1nc2c(c(=O)n(C)c(=O)n2C)n1CCC,inconclusive: 37%
8,COc1ccc(CN2C(=O)c3oc4ccccc4c(=O)c3C2c2ccc(O)c(OC)c2)cc1 (stereo not drawn),inconclusive: 37%
9,Cc1c(O)ccc(C(=O)CN2CCN(Cc3ccccc3)CC2)c1O,inconclusive: 38.5%
10,COc1ccc(OCc2cc(C(=O)N(C)C(C)c3ccon3)no2)c(Cl)c1 (stereo not drawn),inconclusive: 49.9%
11,O=C(CCc1ccccc1)NCCc1ccc(F)cc1,inconclusive: 25.4%
12,CCCC#Cc1ccc([C@@H]2[C@@H](CO)N3CCCCN(S(=O)(=O)c4ccccc4F)C[C@@H]23)cc1,inconclusive: 25.9%
13,CC1CCN(Cc2ccc(NC(=O)CC3Oc4ccccc4NC3=O)cc2)CC1 (stereo not drawn),inactive: -1.64%
14,O=C(N/N=C/c1ccc(F)cc1)c1cc(-c2ccccn2)nc2ccccc12,inconclusive: 20.8%
15,COc1ccc(CN(C)C[C@H]2Oc3ccc(NS(=O)(=O)c4cn(C)cn4)cc3C(=O)N([C@H](C)CO)C[C@H]2C)cc1,inactive: 1.54%
16,O=C(CN1CCN(S(=O)(=O)c2ccc(Br)s2)CC1)NCC1CCCCC1,inconclusive: 30.3%
17,CO[C@@H]1CN(C)C(=O)c2ccc(NC(=O)c3ccccc3)cc2OC[C@@H](C)N(C(=O)C2CC2)C[C@H]1C,active: 25.5%
18,COc1ccc(-c2cc(C(=O)NCC(c3ccccc3)N(C)C)c3ccccc3n2)cc1OC (stereo not drawn),inconclusive: 57.9%
19,COc1cc(/C=C2\NC(=O)NC2=O)cc(Br)c1OC,inconclusive: 35.9%
20,CC(=O)N1CCC(c2c[nH]c3ccccc23)CC1,inconclusive: 23.5%
21,C/C=C/c1ccc([C@H]2[C@@H](CO)N3C(=O)CN(C(=O)c4cnccn4)C[C@@H]23)cc1,inactive: -9.55%
22,Cc1ccc(Cn2cc(CN3CC(N4CCSCC4)CS3(=O)=O)nn2)cc1 (stereo not drawn),active: 30.8%
23,CCOC(=O)c1c(C)nc(C)c(C(=O)OCC)c1-c1cccnc1,inconclusive: 31.8%
24,O=C(CN1CCOCC1)N[C@H]1CC[C@@H](CCNC(=O)C2CCC2)O[C@@H]1CO,inactive: -0.186%
25,O=S(=O)(c1ccc2[nH]ccc2c1)N1CCCCCC1,inactive: -1.35%

# Shown with bars between the fields: 5 of the compounds above
row | Structure (SMILES) | CPE inhibition
3 | C=CC[C@@H](CC(=O)NCCO)C(=O)N[C@@H](C)COC(=O)[C@H](CC=C)CC(=O)OC(C)(C)C | active: 46.4%
4 | CO[C@@H]1CN(C)C(=O)c2cc(NC(C)=O)ccc2OC[C@@H](C)N(CCC(F)(F)F)C[C@H]1C | inactive: -2.63%
5 | COc1cccc(-c2ccc([C@@H]3[C@@H](C#N)N(C(=O)Cc4ccccc4)[C@H]3CO)cc2)c1 | inconclusive: 30.8%
6 | Cc1ccc(-c2cc(C(F)F)nc(S(C)(=O)=O)n2)cc1 | inconclusive: 45.1%
7 | CCCCNc1nc2c(c(=O)n(C)c(=O)n2C)n1CCC | inconclusive: 37%

# The results go on:

row,Structure (SMILES),CPE inhibition
1,CCC(=O)N1CCCCN2[C@@H](CO)[C@@H](c3ccc(-c4ccc(F)cc4)cc3)[C@@H]2C1,inconclusive: 20%
2,C[C@H](O)C#Cc1cnc2c(c1)C(=O)N([C@H](C)CO)C[C@H](C)[C@H](CN(C)Cc1cncnc1)O2,inconclusive: 53%
3,CCC(=O)N1[C@@H]2c3cccc(=O)n3C[C@H]1[C@H](CO)[C@H]2C(=O)NCc1ccc(F)cc1,inconclusive: 26.5%
4,COc1ccc(NC(=O)N(C)C[C@@H]2Oc3c(NS(=O)(=O)c4ccc(F)cc4)cccc3C(=O)N([C@@H](C)CO)C[C@H]2C)cc1,inconclusive: 68.2%
5,Nc1nc(SCC(=O)N2CCCCCC2)[nH]c(=O)c1NC(=O)c1ccco1,inconclusive: 51.7%
6,N#Cc1cccc(OC(=O)c2ccc3c(=O)n4c(nc3c2)CCC4)c1,inconclusive: 22.3%
7,C[C@]12CCC(=O)CC1CCC1C2CC[C@@]2(C)C1CC[C@@]21CCO1 (stereo partly drawn),inactive: -6.8%
8,COc1ccc(S(=O)(=O)Nc2ccc3c(c2)CC(=O)N([C@H](C)CO)C[C@@H](C)[C@@H](CN(C)C(=O)NC2CCCCC2)O3)cc1,inconclusive: 40.1%
9,C#CC[N+](C)(C)CCCCCCCC,inconclusive: 40.4%
10,c1ccc(CCN2CCN=C2Nc2ccccc2)cc1,inactive: 8.79%
11,C[C@@H]1CN([C@H](C)CO)C(=O)c2cc(C#CC3CC3)cnc2O[C@@H]1CN(C)C(=O)c1ccc(F)cc1,inactive: 7.84%
12,O=C(C[C@@H]1C[C@@H]2c3cc(NC(=O)NC4CCCC4)ccc3O[C@@H]2[C@H](CO)O1)NCc1cccnc1,inconclusive: 31.2%
13,CCOC(=O)COc1ccccc1/C=N/Nc1nnc2c3ccccc3n(C)c2n1,inactive: -1.91%
14,COc1ccc(C2C(C(=O)c3ccco3)=C(O)C(=O)N2CCCn2ccnc2)c(OC)c1 (stereo not drawn),inconclusive: 20.7%
15,CC(=O)N1Cc2cc(C(=O)NCc3cc(F)cc(F)c3)nc(-c3cccc(C4=CCCC4)c3)c2[C@@H]1CCO,inconclusive: 27.5%
16,Cc1ccccc1N1CCN(C(=O)C2CCC(=O)N(C3CCCC3)C2)CC1 (stereo not drawn),inconclusive: 30.9%
17,Cc1[nH]c2ccccc2c1/C=N/NC(=O)c1cccc(F)c1,inactive: -4.57%
18,CN1CCN(C(=O)CCn2c(=O)c3cccn3c3cccnc32)CC1,inconclusive: 41.4%
19,O=C(Nc1ccc(S(=O)(=O)Nc2ncccn2)cc1)c1cc([N+](=O)[O-])ccc1Cl,inactive: -1.52%
20,C[C@@H]1CN([C@@H](C)CO)C(=O)c2cc(C#CC(C)(C)O)cnc2O[C@H]1CN(C)Cc1cncnc1,active: 64.2%
21,CC(C)C#Cc1cnc2c(c1)C(=O)N([C@H](C)CO)C[C@@H](C)[C@H](CN(C)C(=O)C1CCC1)O2,inactive: 6.03%
22,CNC[C@@H]1OCCCC[C@H](C)Oc2ccc(NS(=O)(=O)c3c(C)noc3C)cc2C(=O)N([C@@H](C)CO)C[C@H]1C,active: 123%
23,C[C@@H]1CN([C@@H](C)CO)C(=O)c2cccc(NC(=O)Nc3ccc(C(F)(F)F)cc3)c2O[C@@H]1CN(C)C(=O)NC1CCCCC1,inconclusive: 25.2%
24,CC(=O)N1[C@@H]2Cn3c(ccc(-c4ccccc4)c3=O)[C@H]1[C@@H](C(=O)NCCCN1CCOCC1)[C@@H]2CO,inconclusive: 42.5%
25,O=C(N[C@@H]1CC[C@@H](CCNS(=O)(=O)c2ccc(F)cc2)O[C@@H]1CO)C1CCCC1,inactive: 0.015%

row,Structure (SMILES),CPE inhibition
1,O=C(O)C1CCCN1C(=O)C12CC3CC(CC(C3)C1)C2 (stereo not drawn),inconclusive: 24.2%
2,C[C@@H]1CN([C@@H](C)CO)C(=O)Cc2cc(NC(=O)CCCCCC(=O)Nc3ccccc3N)ccc2O[C@@H]1CN(C)Cc1ccc2c(c1)OCO2,active: 60.3%
3,Cc1onc(-c2ccccc2)c1C(=O)Nc1ccc(S(=O)(=O)N2CCOCC2)cc1,inconclusive: 27.7%
4,CCCNC(=O)N1[C@H](C#N)[C@@H](c2ccccc2)[C@H]1CO,inconclusive: 33.5%
5,O=C(CNC(=S)NC(=O)c1ccc(F)cc1)c1ccccc1,inconclusive: 57.3%
6,CN(C)CCN(C(=O)c1ccc2c(c1)OCCO2)c1nc2ccc(Cl)cc2s1,inactive: -2.53%
7,O=C(CN(C(=O)CNC(=O)c1cccs1)c1ccc(F)cc1)NC1CCCC1,inconclusive: 25.6%
8,O=C(COC(=O)Cc1ccc(S(=O)(=O)N2CCOCC2)s1)Nc1ccc(OC(F)F)cc1,inconclusive: 25.5%
9,Cc1ccccc1S(=O)(=O)N1CC[C@@H]2[C@H](CO)Nc3ccc(C#Cc4ccccc4)cc3[C@@H]21,inconclusive: 40.6%
10,C[C@H](CO)N1C[C@H](C)[C@@H](CN(C)C(=O)Cc2ccccc2)OCCCC[C@H](C)Oc2ccc(N(C)C)cc2C1=O,inactive: -7.45%
11,COCC(=O)N1C[C@H](C)[C@H](OC)CN(C)C(=O)c2ccc(NC(=O)NC(C)C)cc2OC[C@@H]1C,inactive: 2.73%
12,O=C(Nc1ccccc1)N1CCCCN2[C@@H](CO)[C@H](c3ccc(Br)cc3)[C@@H]2C1,inconclusive: 20.7%
13,C/C(Cc1ccccc1)=N\NC(=O)CNC(=O)Cc1ccccc1,inconclusive: 44.4%
14,COc1ccc(S(=O)(=O)N(C)C[C@@H]2OCCCC[C@H](C)Oc3ccc(NC(=O)c4ccccc4)cc3C(=O)N([C@H](C)CO)C[C@@H]2C)cc1,active: 44%
15,COCC(=O)Nc1ccc2c(c1)[C@H]1C[C@@H](CC(=O)NCc3cc(F)ccc3F)O[C@@H](CO)[C@H]1O2,active: 37.7%
16,CN(CC(=O)Nc1ccccc1Br)C(=O)CNC(=O)c1ccc2c(c1)OCO2,inconclusive: 33.8%
17,Cc1n[nH]c(C)c1CCC(=O)N/N=C/c1c(C)[nH]c2ccccc12,inconclusive: 21.4%
18,COc1cccc(CN2CCNC(=O)C2CC(=O)N(C)C2CCOCC2)c1 (stereo not drawn),inconclusive: 24.1%
19,O=C(C[C@H]1CC[C@H]2[C@@H](COC[C@H](O)CN2Cc2ccccc2F)O1)N1CCc2ccccc2C1,active: 27.9%
20,C[C@@H]1CCCCO[C@@H](CN(C)Cc2ccc(C(F)(F)F)cc2)[C@@H](C)CN([C@@H](C)CO)C(=O)c2cc(NC(=O)Nc3cccc4ccccc34)ccc2O1,inconclusive: 33.5%
21,O=C(Nc1ccc(S(=O)(=O)NC2=NCCCCC2)cc1)c1cccc(OC(F)F)c1,inconclusive: 38.9%
22,COc1cccc(C(=O)Nc2ccc3c(c2)C(=O)N(C)C[C@H](OC)[C@H](C)CN(C(C)=O)[C@@H](C)CO3)c1,inactive: -8.28%
23,CC(C)(C)c1ccc(C(=O)OCC(=O)Nc2sc3c(c2C#N)CCC3)cc1,active: 98.9%
